We go through 1 sequence from PMC4944948.

Chains of the proteins cited; added tags and fusions are not shown.
UniProt Q13285, whole entry: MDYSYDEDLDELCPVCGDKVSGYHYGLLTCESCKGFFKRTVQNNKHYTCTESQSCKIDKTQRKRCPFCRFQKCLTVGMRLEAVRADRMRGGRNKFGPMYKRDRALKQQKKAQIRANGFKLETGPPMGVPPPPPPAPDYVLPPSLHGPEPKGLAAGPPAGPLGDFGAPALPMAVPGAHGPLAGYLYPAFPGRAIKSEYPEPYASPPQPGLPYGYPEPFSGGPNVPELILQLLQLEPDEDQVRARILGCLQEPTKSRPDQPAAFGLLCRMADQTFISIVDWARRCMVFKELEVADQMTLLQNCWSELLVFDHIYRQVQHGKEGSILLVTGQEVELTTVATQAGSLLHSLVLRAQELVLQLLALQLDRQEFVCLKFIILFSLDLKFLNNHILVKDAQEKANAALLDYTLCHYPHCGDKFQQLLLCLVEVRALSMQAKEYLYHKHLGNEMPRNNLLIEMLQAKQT

The exact form of at least one protein or probe is not confirmed. For some of these results: Results from cells or extracts need not show a direct contact. For some of these results: Weaker means in comparison with the reference protein, sequence or condition of that experiment. For some of these results: At least one verdict was read from the data and is not stated in words by the source.

For series [1], the target named is SF-1 (FLAG-tagged, overexpressed in KGN cells) (UniProt Q13285). Kind of series: EMSA supershift. As to conditions: nuclear extract 5 ug, supershifted by anti-FLAG, abolished by 200-fold cold probe; not given; EMSA as previously reported (ref 30); 5 ug KGN nuclear extract, 200-fold excess cold probe; protein in an extract; protein details: FLAG; label: radiolabel. On the technique in general: In EMSA bound probe runs differently from free probe, usually more slowly.

Series [2] concerns the target SF-1 (FLAG-tagged, purified) (UniProt Q13285). Put plainly: EMSA. The note with it: with purified Myc-FOXL2 WT, binding enhanced; not given; EMSA as previously reported (ref 30); 5 ug KGN nuclear extract, 200-fold excess cold probe; recombinant protein; protein details: FLAG; label: radiolabel.
Series [3] addresses SF-1 (FLAG-tagged, overexpressed in KGN cells) (UniProt Q13285). Kind of series: EMSA. The note with it: not given, EMSA as previously reported (ref 30), 5 ug KGN nuclear extract, 200-fold excess cold probe, protein in an extract, protein details: FLAG, label: radiolabel.

Take “TGTCCCCCAAGGTCGCGGCAG (double strand) [AMH promoter SBE1 probe]”: the binding result in series [1] is on record as “binds”; in series [2] it was “binds”; in series [3] (FOXL2 co-overexpressed, complex increased) it was “binds”; in series [3] (FOXL2 knockdown (siRNA), complex greatly reduced), “binds more weakly”.
